PubChem BioAssay AID504791 – Drosophila RNAi Screening Center – 2011
In all, the deposit lists about 23,000 reagents; below is an unselected part of those with a known target gene and a result. Of all reagents, 199 (0.86%) were called active. 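Plate-scaled ratios behind the calls are not deposited; printed light signals are raw; many rows marked increased or decreased are still called inactive.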 Unmarked entries are inactive. The record does not give: the direction of the score.

- Assay: 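Genes of the fly required for silencing by miRNA, siRNA or endo-siRNA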 (primary screen)
- System: Drosophila S2-derived reporter cells
- Knock-down reagent: long dsRNA against Drosophila genes, about 150-250 ng dsRNA per well (siRNA assay); about 80-120 ng (miRNA assay)
- Timing: about 5 days (siRNA assay); about 4 days (miRNA assay)
- Challenge: copper sulfate induction of reporters: 25 µM (siRNA assay); 200 mM stated (miRNA assay), 1-2 days before reading
- Detection: 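Dual luciferase assay: Renilla to firefly signal ratio in each well, scaled to the mean ratio of its plate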
- Rule for the call: 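a well was a first-pass pick when its plate-scaled ratio rose above 1.5 (siRNA assay) or 1.6 (miRNA assay), or dropped below 0.6; a gene counted only if two separate dsRNAs agreed on retest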

For Cul5 [DRSC14723], how do the results read?
stable assay Renilla, run 1 (luminescence): 6974; stable assay firefly, run 1 (luminescence): 3.60e5

With Pgant5 [DRSC03149], what was measured?
stable assay Renilla, run 1 (luminescence): 12863; stable assay firefly, run 1 (luminescence): 4.16e5

For CG4465 [DRSC15584], what does the deposit list?
stable assay Renilla, run 1 (luminescence): 7442; stable assay firefly, run 1 (luminescence): 3.43e5

For CG14642 [DRSC12228], what does the deposit list?
stable assay Renilla, run 1 (luminescence): 8359; stable assay firefly, run 1 (luminescence): 2.90e5

How did the screen score ND-19 [DRSC04404]?
stable assay Renilla, run 1 (luminescence): 5494; stable assay firefly, run 1 (luminescence): 4.61e5

How did the screen score Npc2b [DRSC15464]?
stable assay Renilla, run 1 (luminescence): 7034; stable assay firefly, run 1 (luminescence): 2.89e5

How did the screen score CG10748 [DRSC09797]?
stable assay Renilla, run 1 (luminescence): 5312; stable assay firefly, run 1 (luminescence): 3.14e5

For TTLL3B [DRSC02133], what was measured?
stable assay Renilla, run 1 (luminescence): 7935; stable assay firefly, run 1 (luminescence): 4.08e5

With nxf4 [DRSC12548], what does the deposit list?
stable assay Renilla, run 1 (luminescence): 6876; stable assay firefly, run 1 (luminescence): 4.71e5

With Peritrophin-15b [DRSC02266], what was measured?
stable assay Renilla, run 1 (luminescence): 6691; stable assay firefly, run 1 (luminescence): 3.99e5

What is on record for Grl65a [DRSC08837]?
stable assay Renilla, run 1 (luminescence): 5402; stable assay firefly, run 1 (luminescence): 2.87e5

For CG3285 [DRSC00589], what does the deposit list?
stable assay Renilla, run 1 (luminescence): 24736; stable assay firefly, run 1 (luminescence): 1.24e5

A stretch from the list above, for reference:
Grl65a [DRSC08837] | stable assay Renilla, run 1 (luminescence): 5402; stable assay firefly, run 1 (luminescence): 2.87e5
CG3285 [DRSC00589] | stable assay Renilla, run 1 (luminescence): 24736; stable assay firefly, run 1 (luminescence): 1.24e5
